# Reference: the supplement of paper PMC8728848
# Some of the results follow.
# B1: PX14375D-bvu-513-34-513 (Bacteroides vulgatus) (protein)
# chain: TEDTFWKDETDFNLALTSCYTPLKNALNGGYYGTRGVMLRIARADEVDFRNDISDVYTVNRFTNSNTNSLTQGMFYQFYNALYRTNSIMQKLEEKKEQFSTDFQNSVKGECLFIRGFYLFQLAKEFKDAPLRLTASQSPSTFPLAKSSQADIWAQAKEDLKTAASLLPITNKIGKPTQGAAYAALGKIYVYEENWQEAINVLEPLTQNPYTYKLVEDFNWNFDDTHENNAESIFELLIEDVGGTDLWGDGENINSTQSNTRPKEYAAAEVGGWYEANPTQQIMDIFWKEKDKDGNFDYRARCSVAWDYEGCTYYQRPFREVFAQDKWKTYWILKYQNWKTQKDEPAPPKSFINERAIRYADVLLMLAEAYMNKGALDTSIGYINQIRRRANLNDYSGPITKEGVFEDLVHQRAIEFFVEGERFYDLRRWGLLEQTLKTCDDTRYKNYQTGKSDNINKFNYFPIPAKELDTNPLCTPSEGW
# Key:
# Experiment in all cases: glycan array binding signal (z-score within array); higher = stronger binding
# Conditions in all cases: glycan notation: IUPAC condensed, linker removed
# [1] = target: Gal3S(b1-4)Glc
# Outline: (§1)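 The binding signal is a Z-score computed within each array and averaged over linkers. Arrays of the same protein sequence at different concentrations or buffers were also averaged together. Data originate from 3228 arrays in the Consortium for Functional Glycomics database, kept only where the protein sequence was available.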
# [2] = target: Gal3S(b1-4)Glc6S
# Outline: as §1
# [3] = target: Gal3S(b1-4)GlcNAc
# Outline: as §1
# [4] = target: Gal3S(b1-4)[Fuc(a1-3)]Glc6S
# Outline: as §1
# [5] = target: Gal3S(b1-4)[Fuc(a1-3)]GlcNAc
# Outline: as §1
# [6] = target: Gal3S(b1-4)[Fuc(a1-3)]GlcNAc6S
# Outline: as §1
# [7] = target: Gal3S4S(b1-4)GlcNAc
# Outline: as §1
# [8] = target: Gal3S6S(b1-4)GlcNAc
# Outline: as §1
# [9] = target: Gal3S6S(b1-4)GlcNAc6S
# Outline: as §1
# [10] = target: Gal4S(b1-4)GlcNAc
# Outline: as §1
# [11] = target: Gal4S6S(b1-4)GlcNAc
# Outline: as §1
# [12] = target: Gal6P(b1-4)GlcNAc
# Outline: as §1
# [13] = target: Gal6S(b1-3)GlcNAc
# Outline: as §1
# [14] = target: Gal6S(b1-3)GlcNAc6S
# Outline: as §1
# [15] = target: Gal6S(b1-4)Glc
# Outline: as §1
# [16] = target: Gal6S(b1-4)Glc6S
# Outline: as §1
# [17] = target: Gal6S(b1-4)GlcNAc
# Outline: as §1
# [18] = target: Gal6S(b1-4)GlcNAc6S
# Outline: as §1
# [19] = target: GalNAc(a1-3)Gal
# Outline: as §1
# [20] = target: GalNAc(a1-3)GalNAc
# Outline: as §1
# [21] = target: GalNAc(a1-3)GalNAc(b1-3)Gal(a1-4)Gal(b1-4)Glc
# Outline: as §1
# [22] = target: GalNAc(a1-3)GalNAc(b1-3)Gal(a1-4)Gal(b1-4)GlcNAc
# Outline: as §1
# [23] = target: GalNAc(b1-3)Gal
# Outline: as §1
# [24] = target: GalNAc(b1-3)Gal(a1-4)Gal(b1-4)GlcNAc
# Outline: as §1
# [25] = target: GalNAc(b1-3)Gal(a1-4)Gal(b1-4)GlcNAc(b1-3)Gal(b1-4)Glc
# Outline: as §1
# [26] = target: GalNAc(b1-3)Gal(a1-6)Gal(b1-4)Glc
# Outline: as §1
# [27] = target: GalNAc(b1-3)GalNAc
# Outline: as §1
# [28] = target: GalNAc(b1-3)GlcNAc
# Outline: as §1
# [29] = target: GalNAc(b1-4)Gal(b1-4)Glc
# Outline: as §1
# [30] = target: GalNAc(b1-4)GlcNAc
# Outline: as §1
# [31] = target: GalNAc(b1-4)GlcNAc(b1-2)Man
# Outline: as §1
# [32] = target: GalNAc(b1-4)GlcNAc(b1-2)Man(a1-3)[GalNAc(b1-4)GlcNAc(b1-2)Man(a1-6)]Man(b1-4)GlcNAc(b1-4)GlcNAc
# Outline: as §1
# [33] = target: GalNAc(b1-4)GlcNAc(b1-3)GalNAc(b1-4)GlcNAc
# Outline: as §1
# [34] = target: GalNAc(b1-4)GlcNAc6S
# Outline: as §1
# [35] = target: GalNAc(b1-6)GalNAc
# Outline: as §1
# [36] = target: GalNAc3S(b1-4)GlcNAc
# Outline: as §1
# [37] = target: GalNAc3S(b1-4)GlcNAc3S
# Outline: as §1
binder,measurement,setting,value
B1,glycan array binding signal (z-score),[1],1.3
same,glycan array binding signal (z-score),[2],0.049
same,glycan array binding signal (z-score),[3],0.226
same,glycan array binding signal (z-score),[4],0.586
same,glycan array binding signal (z-score),[5],1.28
same,glycan array binding signal (z-score),[6],0.692
same,glycan array binding signal (z-score),[7],-0.493
same,glycan array binding signal (z-score),[8],0.747
same,glycan array binding signal (z-score),[9],-0.104
same,glycan array binding signal (z-score),[10],-0.038
same,glycan array binding signal (z-score),[11],-0.109
same,glycan array binding signal (z-score),[12],0.035
same,glycan array binding signal (z-score),[13],-1.3
same,glycan array binding signal (z-score),[14],0.17
same,glycan array binding signal (z-score),[15],0.233
same,glycan array binding signal (z-score),[16],0.348
same,glycan array binding signal (z-score),[17],0.623
same,glycan array binding signal (z-score),[18],-0.403
same,glycan array binding signal (z-score),[19],0.529
same,glycan array binding signal (z-score),[20],0.031
same,glycan array binding signal (z-score),[21],-1.13
same,glycan array binding signal (z-score),[22],0.762
same,glycan array binding signal (z-score),[23],-0.306
same,glycan array binding signal (z-score),[24],0.694
same,glycan array binding signal (z-score),[25],0.403
same,glycan array binding signal (z-score),[26],-0.002
same,glycan array binding signal (z-score),[27],-0.287
same,glycan array binding signal (z-score),[28],-0.773
same,glycan array binding signal (z-score),[29],-0.804
same,glycan array binding signal (z-score),[30],-0.013
same,glycan array binding signal (z-score),[31],0.399
same,glycan array binding signal (z-score),[32],-0.595
same,glycan array binding signal (z-score),[33],-0.579
same,glycan array binding signal (z-score),[34],0.547
same,glycan array binding signal (z-score),[35],0
same,glycan array binding signal (z-score),[36],0.353
same,glycan array binding signal (z-score),[37],-0.468

# 11 consecutive entries already listed, for reference:
binder,measurement,setting,value
B1,glycan array binding signal (z-score),[17],0.623
same,glycan array binding signal (z-score),[18],-0.403
same,glycan array binding signal (z-score),[19],0.529
same,glycan array binding signal (z-score),[20],0.031
same,glycan array binding signal (z-score),[21],-1.13
same,glycan array binding signal (z-score),[22],0.762
same,glycan array binding signal (z-score),[23],-0.306
same,glycan array binding signal (z-score),[24],0.694
same,glycan array binding signal (z-score),[25],0.403
same,glycan array binding signal (z-score),[26],-0.002
same,glycan array binding signal (z-score),[27],-0.287
